Data published in patent publication US20250011427A1 (CONCEPT TO MEDICINE BIOTECH, published 2025).
Residue numbers refer to the chain shown, from its start. No constants are given. Whether binding was seen depends on the method and setting. Some entries that bind do so weakly or less than the wild type.

Sequences of proteins named here, by UniProt entry; tags and fusion partners are left off. A change or cut given only in a name is not applied to a line headed by its entry.
UniProt Q95LI5: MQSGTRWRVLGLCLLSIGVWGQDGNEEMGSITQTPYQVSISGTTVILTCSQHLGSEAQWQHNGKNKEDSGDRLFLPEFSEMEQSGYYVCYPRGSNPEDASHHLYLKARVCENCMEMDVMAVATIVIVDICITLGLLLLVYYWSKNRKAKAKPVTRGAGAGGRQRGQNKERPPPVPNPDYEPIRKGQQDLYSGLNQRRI
UniProt Q95LI8: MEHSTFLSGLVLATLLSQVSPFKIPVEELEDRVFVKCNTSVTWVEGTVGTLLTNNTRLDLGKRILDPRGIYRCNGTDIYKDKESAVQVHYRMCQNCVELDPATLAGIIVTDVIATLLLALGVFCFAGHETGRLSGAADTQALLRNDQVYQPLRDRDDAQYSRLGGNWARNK
UniProt Q95LI7: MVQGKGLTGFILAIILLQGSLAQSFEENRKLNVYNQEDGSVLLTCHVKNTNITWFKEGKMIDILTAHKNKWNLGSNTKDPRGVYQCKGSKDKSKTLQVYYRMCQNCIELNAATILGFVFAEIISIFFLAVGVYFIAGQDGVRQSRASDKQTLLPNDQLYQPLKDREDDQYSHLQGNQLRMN
UniProt P07766: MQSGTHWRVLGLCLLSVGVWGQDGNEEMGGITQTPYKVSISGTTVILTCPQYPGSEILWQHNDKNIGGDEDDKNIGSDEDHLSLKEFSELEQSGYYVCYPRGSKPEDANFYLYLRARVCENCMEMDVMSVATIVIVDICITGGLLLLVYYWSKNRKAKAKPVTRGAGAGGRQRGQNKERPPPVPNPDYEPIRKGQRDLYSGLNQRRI
UniProt P04234: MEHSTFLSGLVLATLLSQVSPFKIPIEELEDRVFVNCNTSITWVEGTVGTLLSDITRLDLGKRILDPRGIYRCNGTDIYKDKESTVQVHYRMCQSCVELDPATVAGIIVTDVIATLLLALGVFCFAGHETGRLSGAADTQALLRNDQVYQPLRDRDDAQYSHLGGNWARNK
UniProt P09693: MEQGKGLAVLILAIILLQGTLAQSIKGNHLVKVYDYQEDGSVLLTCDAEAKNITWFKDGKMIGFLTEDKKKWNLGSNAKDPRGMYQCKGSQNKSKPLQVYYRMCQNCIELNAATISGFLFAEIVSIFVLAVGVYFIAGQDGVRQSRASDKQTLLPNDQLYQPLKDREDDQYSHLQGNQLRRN

B1: 153A6B1 chimeric antibody (antibody, V domains shown)
VH: QVQLKESGPGLVQPSQTLSLTCTVSGFSLTSYNIHWVRQPPGKGLEWMGRIRYNGDTSYNSALKSRLSISRDTSKNQVFLKMSSLQTDDTGTYYCTRGPYGGSREPLFDYWGQGVMVTVSS
VL: DIKMTQSPSFLSAAVGDRVTINCKTSQNINKYLNWFQQKLGAAPKLLIYTTNNLQTGIPSRFSGSGSGTDFTLTISSLQPEDVATYFCLQHGSGYTFGAGTKLELK
B2: Hu192A7B9-1 (antibody, V domains shown)
VH: EVQLQESGPGLVKPSETLSLTCTVSGGSISSYNVHWIRQPPGKGLEWIGRMRYNGDTSYNSALKSRVTISVDTSKNQFSLKLSSVTAADTAVYYCARGPRGGYYSALFDYWGQGTMVTVSS
VL: DIQMTQSPSSLSASVGDRVTITCKASQNINRYLNWYQQKPGKAPKLLIYIANSLQTGVPSRFSGSGSGTDFTLTISSLQPEDFATYYCLQHNSWYTFGQGTKLEIK
B3: Hu192A7B9-2 (antibody, V domains shown)
VH: B2 VH with I37V, V71R
VL: B2 VL
B4: Hu192A7B9-3 (antibody, V domains shown)
VH: B2 VH with I37V, I48M, V67L, V71R
VL: B2 VL
B5: Hu192A7B9-4 (antibody, V domains shown)
VH: B2 VH with I37V, I48M, V67L, V71R, A96T
VL: B2 VL
B6: Hu192A7B9-5 (antibody, V domains shown)
VH: B2 VH with G27F, I37V, I48M, V67L, V71R, F78V, A96T
VL: B2 VL
B7: Hu192A7B9-6 (antibody, V domains shown)
VH: B2 VH with G27F, I29L, S30T, I37V, I48M, V67L, V71R, F78V, A96T
VL: B2 VL
B8: Hu192A7B9-7 (antibody, V domains shown)
VH: B2 VH
VL: B2 VL with Y49S
B9: Hu192A7B9-8 (antibody, V domains shown)
VH: B2 VH with I37V, V71R
VL: B2 VL with Y49S
B10: Hu192A7B9-9 (antibody, V domains shown)
VH: B2 VH with I37V, I48M, V67L, V71R
VL: B2 VL with Y49S
B11: Hu192A7B9-10 (antibody, V domains shown)
VH: B2 VH with I37V, I48M, V67L, V71R, A96T
VL: B2 VL with Y49S
B12: Hu192A7B9-11 (antibody, V domains shown)
VH: B2 VH with G27F, I37V, I48M, V67L, V71R, F78V, A96T
VL: B2 VL with Y49S
B13: Hu192A7B9-12 (antibody, V domains shown)
VH: B2 VH with G27F, I29L, S30T, I37V, I48M, V67L, V71R, F78V, A96T
VL: B2 VL with Y49S
B14: Hu192A7B9-13 (antibody, V domains shown)
VH: B2 VH
VL: B2 VL with Y49S, V58I
B15: Hu192A7B9-14 (antibody, V domains shown)
VH: B2 VH with I37V, V71R
VL: B2 VL with Y49S, V58I
B16: Hu192A7B9-15 (antibody, V domains shown)
VH: B2 VH with I37V, I48M, V67L, V71R
VL: B2 VL with Y49S, V58I
B17: Hu192A7B9-16 (antibody, V domains shown)
VH: B2 VH with I37V, I48M, V67L, V71R, A96T
VL: B2 VL with Y49S, V58I
B18: Hu192A7B9-17 (antibody, V domains shown)
VH: B2 VH with G27F, I37V, I48M, V67L, V71R, F78V, A96T
VL: B2 VL with Y49S, V58I
B19: Hu192A7B9-18 (antibody, V domains shown)
VH: B2 VH with G27F, I29L, S30T, I37V, I48M, V67L, V71R, F78V, A96T
VL: B2 VL with Y49S, V58I
B20: Hu192A7B9-19 (antibody, V domains shown)
VH: B2 VH
VL: B2 VL with L46V, Y49S, V58I, Y87F
B21: Hu192A7B9-20 (antibody, V domains shown)
VH: B2 VH with I37V, V71R
VL: B2 VL with L46V, Y49S, V58I, Y87F
B22: Hu192A7B9-21 (antibody, V domains shown)
VH: B2 VH with I37V, I48M, V67L, V71R
VL: B2 VL with L46V, Y49S, V58I, Y87F
B23: Hu192A7B9-22 (antibody, V domains shown)
VH: B2 VH with I37V, I48M, V67L, V71R, A96T
VL: B2 VL with L46V, Y49S, V58I, Y87F
B24: Hu192A7B9-23 (antibody, V domains shown)
VH: B2 VH with G27F, I37V, I48M, V67L, V71R, F78V, A96T
VL: B2 VL with L46V, Y49S, V58I, Y87F
B25: Hu192A7B9-24 (antibody, V domains shown)
VH: B2 VH with G27F, I29L, S30T, I37V, I48M, V67L, V71R, F78V, A96T
VL: B2 VL with L46V, Y49S, V58I, Y87F

What was measured:
[1] = target: T1, cynomolgus CD3 on cynomolgus PBMC (cynomolgus) (UniProt Q95LI5+Q95LI8+Q95LI7); assay: FACS on PBMC
[2] = target: T2, human CD3 on cells (human PBMC; Jurkat-CD3-NFAT and TCR/CD3 Effector reporter cells) (human) (UniProt P07766+P04234+P09693); assay: FACS on PBMC
[3] = target: human CD3 protein (human) (UniProt P07766+P04234); assay: ELISA
[4] = target: T2, human CD3 on cells (human PBMC; Jurkat-CD3-NFAT and TCR/CD3 Effector reporter cells) (human); assay: FACS on human PBMC, PE goat anti-human IgG Fc secondary antibody, geometric mean fluorescence
[5] = target: T1, cynomolgus CD3 on cynomolgus PBMC (cynomolgus); assay: FACS on cynomolgus PBMC, PE goat anti-human IgG Fc secondary antibody, geometric mean fluorescence

Row | Binder | binding [3] | other results
1 | B1 | binds | binding [1]: binds; binding [2]: binds; binding [4]: binds; binding [5]: binds
2 | B2 | binds | 
3 | B3 | binds | 
4 | B4 | binds | 
5 | B5 | binds | 
6 | B6 | binds | 
7 | B7 | binds | 
8 | B8 | binds | 
9 | B9 | binds | 
10 | B10 | binds | 
11 | B11 | binds | 
12 | B12 | binds | 
13 | B13 | binds | 
14 | B14 | binds | 
15 | B15 | binds | 
16 | B16 | binds | 
17 | B17 | binds | 
18 | B18 | binds | 
19 | B19 | binds | 
20 | B20 | binds | 
21 | B21 | binds | 
22 | B22 | binds | 
23 | B23 | binds | 
24 | B24 | binds | 
25 | B25 | binds | 
